According to patent publication US20130136691A1, “GASTRIN […] PEPTIDE COMPOUNDS” (priority 2008, published 2013):
Structures can show the parent of a compound that is named as a salt.

System: BT-474 tumor-bearing nude mice

SMILES	decrease in 177Lu-AMBA binding (tumor GRP receptor specific signal) over control tumor values (25 mg/kg, day 14, estradiol supplemented (0.6 mg/kg) BT-474 tumor bearing mice, 1 h, P<0.05) [%]	177Lu-AMBA in Blood (% ID) (1 hr, + Tamoxifen/+ ES, control 0.14 ± 0.06)	177Lu-AMBA in Kidneys (% ID) (1 hr, + Tamoxifen/+ ES, control 2.69 ± 0.28)	177Lu-AMBA in Gastrointestinal (% ID) (1 hr, + Tamoxifen/+ ES, control 11.93 ± 0.43)	177Lu-AMBA in Pancreas (% ID) (1 hr, + Tamoxifen/+ ES, control 12.50 ± 0.67)	177Lu-AMBA in Bladder/urine (% ID) (1 hr, + Tamoxifen/+ ES, control 42.79 ± 1.58)
CC/C(=C(\c1ccccc1)c1ccc(OCCN(C)C)cc1)c1ccccc1 [Tamoxifen citrate, reference compound]	68					
CC/C(=C(\c1ccccc1)c1ccc(OCCN(C)C)cc1)c1ccccc1 [Tamoxifen]		0.13 ± 0.05	2.30 ± 0.88	10.93 ± 3.19	9.81 ± 2.83	54.82 ± 6.54
